Tests used:
PICV-GFP = assay: microbe, parasite or virus in culture; assay type: cell-based; conditions: Pichinde virus, Vero C1008, 48 h
[1] = tested on: LASV and JUNV pseudoviruses; assay: organism not typed; assay type: cell-based; conditions: read-out: in vitro IC50 of aripiprazole in combination

In the case of O=C1CCc2ccc(OCCCCN3CCN(c4cccc(Cl)c4Cl)CC3)cc2N1 [aripiprazole], the IC50 (PICV-GFP) is reported as 5.4 µM and the IC50 [1] is reported as 4.5 to 6 µM.

— patent US20230210816A1 (priority 2020, published 2023)
